# Primary screen of a compound library

The filed quantity is “Percent Effect” (%). How 0% and 100% were set is not recorded. Most values in the screen are low, and negative values occur. Compounds were drawn at random from those tested, without regard to their results.

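Whole-cell growth test on Mycobacterium tuberculosis, read after 4 days in a medium based on cholesterol and the lipid DPPC; the read-out is not stated. Tested at 500 µM. The record gives no direction; compounds that gave an IC50 in retests scored well above the rest, so higher reads as more growth inhibition. Of about 18,000 compounds tested this way, about 900 (5%) reached 50% or more in at least one test.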

SMILES,percent effect
CCOc1cc(-c2nnn(C)n2)ccc1OC,0.8981
CCOC(=O)C(C)(C)n1cc(N)cn1,21.17
COc1ccc([C@H]2C[C@H](N)C2)cc1F,32.05
COc1ccc2[nH]c(C)nc2c1,8.83
O=C(CCN1CCCS1(=O)=O)Nc1ccccc1I,6.221
Cc1ccnc(NC(=O)N(C)Cc2ccncc2)c1,17.13
CN(CCCNS(N)(=O)=O)c1ccccc1F,15.46
CN(Cc1cc(Br)cs1)C(=O)C(C)(C)CN,-12.73
O=C(NCCN1CCCCC1)NC1CCS(=O)(=O)C1 (stereo not shown),-0.4787
N#Cc1ccc(NC(=O)Cn2cc(I)cn2)cc1,-2.703
CC(C)C(N)c1nnc[nH]1 (stereo not shown),5.989
CC(C)C1CCCN1C(=O)c1cccc(NC(N)=O)c1 (stereo not shown),11.25
COC(=O)c1ccc(N2CCCC2)nn1,-0.7174
CCO[C@@H]1COCC[C@H]1NC(=O)c1ncc(F)cc1F,-8.722
CN(CCc1cnn(C)c1)C(=O)CN1CCOC1=O,5.742
N[C@@H]1CCCc2c(F)cc(F)cc21,20.63
NS(=O)(=O)N1CCCC1C(=O)NC1CC1 (stereo not shown),-14.37
Cc1cnn(C(=O)c2cc(C(F)(F)F)n(C)n2)c1,14.08
CCOc1cc(C)ccc1S(=O)(=O)Nc1ccccn1,7.626
O=C(c1cnc[nH]1)N1C[C@H](O)[C@@H](N2CCCCC2)C1,-1.763
Cc1cc(C)c(CNC(=O)Cc2cccs2)c(=O)[nH]1,-22.13
OCC1CN(C2CCC2)CC12CCN(C1CCC1)CC2 (stereo not shown),4.31
CCN(CC)CCNC(=O)Nc1ccc2cn[nH]c2c1,-2.007
Cc1nccn1CCCN1CCCC(C2OCCO2)C1 (stereo not shown),-21
CC(=O)c1ccc(S(C)(=O)=O)c(N(C)CCC2CC2)c1,-24.16
CN(CCNc1ncccc1C#N)C(=O)OC(C)(C)C,24.55
CC(C)C(C)(C#N)NC(=O)CN1CCCCC1 (stereo not shown),11.51
Cn1cc(S(=O)(=O)NCC2(N)CCCCC2)cn1,0.3458
CN(CCc1ccncc1)CCN1CCCC1=O,13.68
CSc1cccc(C#N)n1,-1.452
Cc1noc(C)c1CCC(=O)NCc1ccon1,7.139
CS(=O)(=O)CCC(=O)NCCNC(=O)c1ccccc1,-1.48
CNC(=O)CN(C)C(=O)C(C)OCc1ccccc1 (stereo not shown),-1.602
Cn1cc(CNCCNC(=O)c2cccs2)cn1,-2.168
CN(CC(=O)N1CCCC1)Cc1ccccc1,9.943
NC(=O)C1CCCN(c2nccc(C(F)(F)F)n2)C1 (stereo not shown),-18.02
CN(CC(=O)NC(C)(C)C)C(=O)c1cncc(Br)c1,-15.46
NCc1nnc2ccc(Cl)nn12,-8.317
COc1cccc(CO)n1,11.1
COc1cc(F)ccc1C(C)=O,8.181
Cc1nonc1C(=O)Nc1cnc(N(C)C)nc1,11.58
COc1ncccc1C(=O)N1CCc2ccccc2C1,13.14
CCc1nsc(N2CCNCC2)n1,-7.302
COC(=O)c1cccc(NC(=O)c2n[nH]cc2I)c1,18.56
CCCC(C(=O)OCC)n1ccc(N)n1 (stereo not shown),1.868
N#CCCN(CCC#N)Cc1cccc2c1OCO2,11.89
N#CCCOc1ccccc1,8.282
COC(=O)NC(=O)c1ccc(Cl)cc1,33.54
Cc1ccc(=O)n(Cc2nc(C3CCOC3)no2)n1 (stereo not shown),-7.267
CCn1ncnc1C(C)NC(=O)c1cc(Cl)ccc1F (stereo not shown),10.13
Cc1cc(N2CCNCC2)nc2ccccc12,57.97
Cc1ccccc1CC(=O)N(C)C,3.306
Fc1cccnc1OC1CCCNC1 (stereo not shown),5.403
O=C(Cc1ccc(F)cc1F)NCCC1CCNC1 (stereo not shown),13.35
Cc1[nH]ncc1CNCC(O)CN1CCCCC1 (stereo not shown),-10.74
Cc1ccncc1N1CCNCC1,1.029
Cn1c(=O)oc2ccc(NCc3ccco3)cc21,-1.575
O=C(CN1CSCC1=O)NCCC1=CCCCC1,5.103
CCC(C)NC(=O)COC(=O)c1c(C)nsc1NC (stereo not shown),-10.11
CC1NCc2ccccc2NC1=O (stereo not shown),-5.929
CCCN(C1CCNCC1)S(=O)(=O)CC1CCCCO1 (stereo not shown),9.054
CN(Cc1ccccc1)C(=O)C1(O)CCCC1,29.46
NC(CCN1CCOCC1)c1ccccc1 (stereo not shown),-1.973
CC1=C(C(=O)NC(C)c2nc3ccccc3[nH]2)CCO1 (stereo not shown),11.34
COc1cccc(NC(=O)Cn2cncn2)c1,-26.99
Cc1cc(C(N)=O)n[nH]1,3.796
CNS(=O)(=O)c1ccccc1C(=O)OC,1.633
CNc1cc(C#N)c2ccccc2n1,-3.9
Cc1nn(C)c(N(C)C)c1CNCc1nncn1C,0.1743
Cc1nc(NC(=O)c2ccnn2C)sc1C,5.664
CS(=O)(=O)NC1CCN(CCn2cc(Cl)cn2)CC1,-0.2106
CC(c1ccncc1)N(C)Cc1ccc(CO)o1 (stereo not shown),-12.05
CC(C)NC(=O)C(C)N1CCNCC1 (stereo not shown),-4.53
COc1nc(C)nc(NCC(C)(C)C(N)=O)c1C,-3.327
COc1ccc(Cl)cc1C(=O)N1C[C@H](O)[C@@H](N(C)C)C1,-8.659
Cc1ccc(-n2nnc(C(N)=O)c2C)cc1,-6.153
CCNC(=O)CNc1nnnn1-c1ccc(C)cc1,21.72
N#Cc1cccc(NC(=O)NCCn2ccnc2)c1,8.056
CC(c1ccccc1F)N1CC(=O)N(C)C1 (stereo not shown),-2.013
c1ccc(CN2CCCCC2CN2CCOCC2)nc1 (stereo not shown),-7.536
O=C(O)c1cccnc1N1CCC2(CCCNC2)C1 (stereo not shown),-5.28
COCC(C)(C)C(=O)NCc1cc(F)ccc1C,6.908
Cc1ccc(C(=O)N2CCC(N3CCN(C)CC3)C2)s1 (stereo not shown),9.653
O=C1COCC(=O)N1CCc1ccc(Cl)cc1,7.678
NC1CCCN(c2cccnc2)C1=O (stereo not shown),-21.63
C1COC(CN2CCNCC2)C1 (stereo not shown),-1.763
O=C(NCCNCc1ccsc1)c1ccn[nH]1,-16.8
CSc1ncnc2c1cnn2C,-18.63
C1CN(C2CNC2)CCO1,-3.68
OC[C@@H](Cc1ccccc1)NC1CCOC1 (stereo partly shown),9.499
Cc1nc(CN2CC(S(=O)(=O)NC3CCCC3)C2)no1,2.614
CCN1CCN(c2ccc(C(C)=O)cc2)CC1,-16.28
CO[C@H]1CNCC1NC(=O)c1cc2ccccc2n1C (stereo partly shown),33.81

For reference, 9 entries once more:

SMILES,percent effect
NC(CCN1CCOCC1)c1ccccc1 (stereo not shown),-1.973
N#Cc1ccc(NC(=O)Cn2cc(I)cn2)cc1,-2.703
COc1nc(C)nc(NCC(C)(C)C(N)=O)c1C,-3.327
CSc1ncnc2c1cnn2C,-18.63
CN(CC(=O)NC(C)(C)C)C(=O)c1cncc(Br)c1,-15.46
Cc1nn(C)c(N(C)C)c1CNCc1nncn1C,0.1743
CCOc1cc(C)ccc1S(=O)(=O)Nc1ccccn1,7.626
Cc1nc(NC(=O)c2ccnn2C)sc1C,5.664
COCC(C)(C)C(=O)NCc1cc(F)ccc1C,6.908

The values are deposited in ChEMBL (CHEMBL3988442, “University of Dundee, Small-Polar-MMV Screening Library” (2021)).